# In article PMC8860602:
# Sequences of proteins named here, by UniProt entry; tags and fusion partners are left off. A change or cut given only in a name is not applied to a line headed by its entry. A line that says so, or that is headed by a name, gives the form on record, which may keep a tag or linker. Residues count along the entry.
# UniProt Q12888: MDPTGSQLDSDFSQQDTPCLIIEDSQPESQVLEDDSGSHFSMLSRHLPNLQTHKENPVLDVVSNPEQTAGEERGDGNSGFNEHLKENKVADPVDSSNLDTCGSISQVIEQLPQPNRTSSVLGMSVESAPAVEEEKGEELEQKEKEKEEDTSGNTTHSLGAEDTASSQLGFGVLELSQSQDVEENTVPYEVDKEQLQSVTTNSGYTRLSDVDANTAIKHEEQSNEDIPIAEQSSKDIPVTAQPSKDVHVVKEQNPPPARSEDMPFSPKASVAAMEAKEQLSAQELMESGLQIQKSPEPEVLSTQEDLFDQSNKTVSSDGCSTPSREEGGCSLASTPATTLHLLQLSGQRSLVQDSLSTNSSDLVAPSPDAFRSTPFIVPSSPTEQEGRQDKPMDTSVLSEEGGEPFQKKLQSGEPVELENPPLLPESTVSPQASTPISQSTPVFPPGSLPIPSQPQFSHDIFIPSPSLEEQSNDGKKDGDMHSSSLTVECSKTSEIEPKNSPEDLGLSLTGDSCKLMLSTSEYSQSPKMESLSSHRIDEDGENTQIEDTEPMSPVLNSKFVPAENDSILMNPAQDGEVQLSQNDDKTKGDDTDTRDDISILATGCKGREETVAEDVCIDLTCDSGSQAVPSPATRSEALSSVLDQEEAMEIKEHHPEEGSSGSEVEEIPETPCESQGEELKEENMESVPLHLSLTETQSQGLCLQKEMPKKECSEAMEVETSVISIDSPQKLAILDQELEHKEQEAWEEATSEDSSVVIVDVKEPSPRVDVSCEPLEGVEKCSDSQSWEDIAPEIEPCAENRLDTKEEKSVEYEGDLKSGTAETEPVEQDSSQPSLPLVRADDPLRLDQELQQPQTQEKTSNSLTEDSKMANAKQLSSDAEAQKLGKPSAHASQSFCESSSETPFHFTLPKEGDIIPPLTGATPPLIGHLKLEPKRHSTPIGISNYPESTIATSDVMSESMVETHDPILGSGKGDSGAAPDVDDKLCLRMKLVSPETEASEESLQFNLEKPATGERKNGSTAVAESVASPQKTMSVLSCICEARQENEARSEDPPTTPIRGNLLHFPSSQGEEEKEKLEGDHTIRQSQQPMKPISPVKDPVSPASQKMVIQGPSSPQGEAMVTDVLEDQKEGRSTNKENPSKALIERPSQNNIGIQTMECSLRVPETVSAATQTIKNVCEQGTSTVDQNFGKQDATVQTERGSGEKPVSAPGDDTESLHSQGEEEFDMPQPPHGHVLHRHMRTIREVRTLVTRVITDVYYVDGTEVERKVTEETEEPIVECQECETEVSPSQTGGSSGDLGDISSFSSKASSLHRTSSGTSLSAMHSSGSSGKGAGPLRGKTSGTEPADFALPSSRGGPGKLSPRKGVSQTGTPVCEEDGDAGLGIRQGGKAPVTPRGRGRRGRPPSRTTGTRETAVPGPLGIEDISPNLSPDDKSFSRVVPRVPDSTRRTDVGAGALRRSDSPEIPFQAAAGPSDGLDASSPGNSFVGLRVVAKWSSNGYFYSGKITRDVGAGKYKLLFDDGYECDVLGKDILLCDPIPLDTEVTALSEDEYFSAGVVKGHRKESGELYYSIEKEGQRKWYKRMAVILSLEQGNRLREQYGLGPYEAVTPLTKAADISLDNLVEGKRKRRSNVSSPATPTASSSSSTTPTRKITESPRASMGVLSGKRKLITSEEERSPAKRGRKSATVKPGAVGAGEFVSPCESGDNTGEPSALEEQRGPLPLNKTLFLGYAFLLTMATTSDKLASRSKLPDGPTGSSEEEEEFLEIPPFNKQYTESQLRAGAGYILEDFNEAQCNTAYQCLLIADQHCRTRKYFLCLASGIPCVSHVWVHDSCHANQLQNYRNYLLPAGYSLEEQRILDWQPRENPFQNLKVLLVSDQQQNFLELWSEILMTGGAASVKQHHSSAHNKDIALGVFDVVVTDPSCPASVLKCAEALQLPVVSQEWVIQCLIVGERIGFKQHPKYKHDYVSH
# GST-53BP1-N (GST-tagged N-terminus of 53BP1): residues 1-699 of Q12888
# UniProt P53396: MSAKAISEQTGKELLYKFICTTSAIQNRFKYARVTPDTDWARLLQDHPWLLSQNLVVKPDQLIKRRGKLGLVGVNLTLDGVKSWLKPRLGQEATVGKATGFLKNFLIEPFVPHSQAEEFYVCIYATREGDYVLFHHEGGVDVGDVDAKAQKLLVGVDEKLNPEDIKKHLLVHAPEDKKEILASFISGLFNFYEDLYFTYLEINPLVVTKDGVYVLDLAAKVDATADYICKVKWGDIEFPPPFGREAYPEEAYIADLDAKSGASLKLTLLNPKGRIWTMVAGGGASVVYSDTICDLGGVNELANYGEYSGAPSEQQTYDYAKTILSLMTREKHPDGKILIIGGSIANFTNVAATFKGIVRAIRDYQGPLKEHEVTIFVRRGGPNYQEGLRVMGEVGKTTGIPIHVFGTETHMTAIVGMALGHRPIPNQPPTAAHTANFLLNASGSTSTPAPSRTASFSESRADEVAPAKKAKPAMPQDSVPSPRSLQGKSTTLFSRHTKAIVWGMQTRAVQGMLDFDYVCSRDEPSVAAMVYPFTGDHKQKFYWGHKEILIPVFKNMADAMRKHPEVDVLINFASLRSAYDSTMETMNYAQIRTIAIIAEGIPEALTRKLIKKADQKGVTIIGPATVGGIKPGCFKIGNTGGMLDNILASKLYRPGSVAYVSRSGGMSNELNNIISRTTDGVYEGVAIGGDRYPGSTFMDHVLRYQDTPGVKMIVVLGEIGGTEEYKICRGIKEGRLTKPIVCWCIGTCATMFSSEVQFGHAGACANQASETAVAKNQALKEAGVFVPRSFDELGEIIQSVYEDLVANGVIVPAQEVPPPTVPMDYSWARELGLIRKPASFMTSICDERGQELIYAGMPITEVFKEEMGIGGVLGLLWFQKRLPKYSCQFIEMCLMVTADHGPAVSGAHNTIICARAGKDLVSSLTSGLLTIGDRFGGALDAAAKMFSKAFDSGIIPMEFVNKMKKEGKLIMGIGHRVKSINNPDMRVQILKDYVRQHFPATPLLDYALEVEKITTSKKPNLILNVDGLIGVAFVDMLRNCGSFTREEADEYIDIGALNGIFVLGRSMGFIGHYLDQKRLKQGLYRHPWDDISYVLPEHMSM
# GFP-ACLY-D3 (CoA ligase-containing region, residues 631–850): residues 631-850 of P53396
# Results are given in words; binding and its absence hold for the method and conditions named. In cells and extracts the contact can be indirect. Some results given as binding are weak or reduced against the parent protein; the word gives no strength.
# Tests used:
# [1] = target: 53BP1, endogenous in HeLa cells (human (endogenous in HeLa)) (UniProt Q12888); assay: co-IP; endogenous proteins; IPs with anti-53BP1, anti-ACLY or control IgG from extracts of 53BP1+/+ or 53BP1-/- MEFs and of control or 53BP1-depleted HeLa cells; RIPA buffer, Protein G Sepharose, 4 °C overnight; western blot
# [2] = target: HA-53BP1 (human wild-type 53BP1, pcDNA-HA-53BP1) (human) (UniProt Q12888); assay: co-IP; HA-tagged 53BP1 constructs and GFP-tagged ACLY constructs co-transfected in HEK293T cells; RIPA buffer, Protein G Sepharose, 4 °C overnight; western blot
# [3] = target: GST-53BP1-N (GST-tagged N-terminus of 53BP1) (human) (UniProt Q12888); assay: pull-down; recombinant GST-53BP1-N on Glutathione Sepharose 4B beads, total lysates of HEK293T cells transfected with WT GFP-ACLY or deletion mutants D3 and D4; binding buffer 20 mM Tris-HCl pH 7.5, 150 mM NaCl, 0.5% NP40, 4 °C, 90 min; only the target purified
Substance,binding [1],binding [2],binding [3]
"ACLY, endogenous in HeLa cells (from UniProt P53396 1-1101) (enzyme)",binds,,
GFP-ACLY (full length) (from UniProt P53396-1 1-1101) (enzyme),,binds,
"GFP-ACLY-D3 (CoA ligase-containing region, residues 631–850) (from UniProt P53396-1 631-850) (domain or fragment)",,binds,binds
